Values of other authors, collected in patent publication US20210292265A1, “CHALCONES AND DERIVATIVES FOR USE IN MEDICAMENTS AND NUTRACEUTICALS” (HLXTH B.V., priority 2018, published 2021).
At least one compound was matched to its structure with a doubt left.

System: mice
Details: fed beginning at 600 days of age, cited from earlier work

CO[C@H]1C[C@@H]2CC[C@@H](C)[C@@](O)(O2)C(=O)C(=O)N2CCCC[C@H]2C(=O)O[C@H]([C@H](C)C[C@@H]2CC[C@@H](O)[C@H](OC)C2)CC(=O)[C@H](C)/C=C(\C)[C@@H](O)[C@@H](OC)C(=O)[C@H](C)C[C@H](C)/C=C/C=C/C=C/1C [Rapamycin]
increase of lifespan based on age at 90% mortality, females (female mice): 14% | increase of lifespan based on age at 90% mortality, males (male mice): 9%
